The assay concerns P388 leukemia ip, CD2F1 mice, survival T/C. Put plainly: NCI In Vivo Anticancer Drug Screen. Data for tumor model P388 Leukemia (intraperitoneal) in CD2F1 (CDF1) mice. The note with it: T/C endpoint: median survival time, higher T/C = longer survival.
[1] abbreviates: dose: 200.0 mg/kg/injection, schedule: Q01DX009 (ip), vehicle: saline with Tween-80.
Where [2] appears, read: dose: 60.0 mg/kg/injection, schedule: Q01DX005 (ip), vehicle: Klucel (hydroxypropylcellulose) (HPC).
Setting [3] is: dose: 60.0 mg/kg/injection, schedule: Q01DX005 (ip), vehicle: saline with Tween-80.
[4] abbreviates: dose: 200.0 mg/kg/injection, schedule: Q01DX005 (ip), vehicle: saline with Tween-80.
The mark [5] stands for this setting: dose: 200.0 mg/kg/injection, schedule: Q01DX009 (ip), vehicle: saline.
[6] abbreviates: dose: 200.0 mg/kg/injection, schedule: Q01DX005 (ip), vehicle: saline.
Where [7] appears, read: dose: 100.0 mg/kg/injection, schedule: Q01DX009 (ip), vehicle: saline.
Where [8] appears, read: dose: 50.0 mg/kg/injection, schedule: Q01DX009 (ip), vehicle: Klucel (hydroxypropylcellulose) (HPC).
Setting [9] is: dose: 100.0 mg/kg/injection, schedule: Q01DX009 (ip), vehicle: Klucel (hydroxypropylcellulose) (HPC).
The mark [10] stands for this setting: dose: 200.0 mg/kg/injection, schedule: Q01DX009 (ip), vehicle: Klucel (hydroxypropylcellulose) (HPC).

These results are taken from PubChem BioAssay AID330 (DTP/NCI, 2004).

The list does not hold the whole screen: it is rich in T/C values a quarter to a half above the control, in often repeated tests (any T/C) and in doses without a T/C. Further doses and runs are listed elsewhere. T/C is the treated group as % of the vehicle group. Some entries give survivors of the animals treated and no T/C: the source files T/C as zero there, which appears to mark a toxic dose or a test without result, not a measured value. Some survivor counts are full or nearly so, which does not show that the dose was tolerated: survival well below the control is almost never listed, so the zero probably covers shortened survival too. Counts of survivors are from the toxicity check (mostly the fifth day) where no day follows; animals may have died later. Schedules are NCI's codes, read here as Q, the interval in days (D) or hours (H), X, the number of doses. Where survival is the endpoint, the PubChem record calls one and a half times the control and up active, and a quarter to a half above the control has no call in these data; cut-offs in other NCI protocols can differ. Some T/C values carry the count of animals alive at the toxicity check (mostly the fifth day); where none is given, no animal had died by that day.

Turning to `NC(COC(c1ccccc1)(c1ccccc1)c1ccccc1)C(=O)O` (stereo not drawn), for the setting “dose: 400.0 mg/kg/injection, schedule: Q04DX003 (ip), vehicle: saline”, the T/C is 131 % of control [5 of 6 alive].
For `O=C(Nc1ccc(C2=NCCN2)cc1)c1ccc(NC(=O)c2ccc(C3=NCCN3)cc2)cc1`, the T/C by setting is: (dose: 40.0 mg/kg/injection, schedule: Q01DX010 (ip), vehicle: saline) 136 % of control; (dose: 60.0 mg/kg/injection, schedule: Q01DX010 (ip), vehicle: saline) 145 % of control.
As to `O=C(O)CCSC1=CC(=O)c2ccccc2C1=O`, the survivor count is on record as 1 of 6 (dose: 25.0 mg/kg/injection, schedule: Q04DX003 (ip), vehicle: gum acacia); 0 of 6 (dose: 100.0 mg/kg/injection, schedule: Q04DX003 (ip), vehicle: gum acacia); 0 of 6 (dose: 200.0 mg/kg/injection, schedule: Q04DX003 (ip), vehicle: gum acacia); 0 of 6 (dose: 400.0 mg/kg/injection, schedule: Q04DX003 (ip), vehicle: gum acacia).
With `CCCCCCCCCCCC[N+]1(CCCCCCCCCCCC)CCCC(C)C1` (stereo not drawn), the T/C (dose: 0.37 mg/kg/injection, schedule: Q01DX009 (ip), vehicle: Klucel (hydroxypropylcellulose) (HPC)) was 149 % of control. For the same compound, the survivor count is recorded as 0 of 6 (dose: 1.5 mg/kg/injection, schedule: Q01DX009 (ip), vehicle: Klucel (hydroxypropylcellulose) (HPC)); 0 of 6 (dose: 3.0 mg/kg/injection, schedule: Q01DX009 (ip), vehicle: Klucel (hydroxypropylcellulose) (HPC)); 0 of 6 (dose: 6.0 mg/kg/injection, schedule: Q01DX009 (ip), vehicle: Klucel (hydroxypropylcellulose) (HPC)).
Regarding `O=c1oc2cccc(O)c2s1`, the survivor count reads like this: (dose: 100.0 mg/kg/injection, schedule: Q01DX001 (ip), vehicle: Klucel (hydroxypropylcellulose) (HPC)) 0 of 6; (dose: 200.0 mg/kg/injection, schedule: Q01DX001 (ip), vehicle: Klucel (hydroxypropylcellulose) (HPC)) 0 of 6.
With `c1ccc(C2(c3ccccc3)CN3CCSC3=N2)cc1`, under “dose: 400.0 mg/kg/injection, schedule: Q04DX003 (ip), vehicle: saline with Tween-80”, the survivor count is recorded as 1 of 6.
For `CC(=O)/C=C\c1ccc(Cl)cc1`, the survivor count under setting [1] is reported as 6 of 6.
With `O=C(NC(=O)c1c(F)cccc1F)Nc1cc(Cl)c(F)c(Cl)c1F`, the survivor count is recorded as 6 of 6 (dose: 15.0 mg/kg/injection, schedule: Q01DX005 (ip), vehicle: Klucel (hydroxypropylcellulose) (HPC)) and 6 of 6 under setting [2].
In the case of `CN(C)c1ccc(C2c3c(oc4ccccc4c3=O)Oc3oc4ccccc4c(=O)c32)cc1`, the survivor count is given as 6 of 6 under setting [3]; 6 of 6 (dose: 120.0 mg/kg/injection, schedule: Q01DX005 (ip), vehicle: saline with Tween-80); 6 of 6 (dose: 240.0 mg/kg/injection, schedule: Q01DX005 (ip), vehicle: saline with Tween-80).
As for `CCOc1ccc2c(c1)n([O-])c1cc(Cl)ccc1[n+]2=O`, the survivor count under setting [4] is 0 of 6.
Take `O=C1NNC(=O)C1C(=O)Nc1ccccc1`: the survivor count is reported as 5 of 6 (dose: 7.5 mg/kg/injection, schedule: Q01DX005 (ip), vehicle: Klucel (hydroxypropylcellulose) (HPC)); 2 of 6 (dose: 30.0 mg/kg/injection, schedule: Q01DX005 (ip), vehicle: Klucel (hydroxypropylcellulose) (HPC)); 0 of 6 under setting [2]; 0 of 6 (dose: 120.0 mg/kg/injection, schedule: Q01DX005 (ip), vehicle: Klucel (hydroxypropylcellulose) (HPC)); 0 of 6 (dose: 240.0 mg/kg/injection, schedule: Q01DX005 (ip), vehicle: Klucel (hydroxypropylcellulose) (HPC)).
As to `C=CC1CN2CCC1CC2C(O)c1ccnc2ccccc12` (stereo not drawn), the survivor count (dose: 240.0 mg/kg/injection, schedule: Q01DX005 (ip), vehicle: saline) is 0 of 6.
`Cc1ccc2cccc(OC(=O)Nc3cc(Cl)c(Cl)cc3Cl)c2n1`: the survivor count was 6 of 6 under setting [3] and 6 of 6 (dose: 120.8 mg/kg/injection, schedule: Q01DX005 (ip), vehicle: saline with Tween-80).
In the case of `CC1=NN(c2ccccc2)C(=O)C1N=Nc1cc(Cl)cc(S(=O)(=O)O)c1O` (stereo not drawn), the survivor count under setting [5] is 5 of 6.
On to `COCCNC(=S)SCCN(C(C)C)C(C)C`, for which the survivor count under setting [4] is 3 of 6.
For the compound `O=C1C(O)=C(Cl)C(=O)C(O)=C1Cl`, under setting [6], the survivor count is reported as 2 of 6.
Turning to `Cn1cc/c(=N\N=c2/ccn(C)c3ccccc23)c2ccccc21`, the survivor count (dose: 200.0 mg/kg/injection, schedule: Q04DX002 (ip), vehicle: saline) was 0 of 6 and the survivor count (dose: 400.0 mg/kg/injection, schedule: Q04DX002 (ip), vehicle: saline) is 1 of 6.
On to `c1coc(CNC2=NCCCCC2)c1`, for which the survivor count under setting [7] is on record as 0 of 6; the survivor count under setting [5] is 0 of 6; the survivor count (dose: 400.0 mg/kg/injection, schedule: Q01DX009 (ip), vehicle: saline) is reported as 0 of 6.
Consider `Cc1cc2c(=O)[nH]c(N)nc2[nH]1`, for which the survivor count is, setting by setting: (dose: 100.0 mg/kg/injection, schedule: Q01DX009 (ip), vehicle: suspension in saline) 1 of 6; (dose: 200.0 mg/kg/injection, schedule: Q01DX009 (ip), vehicle: suspension in saline) 0 of 6.
Take `CCC#CC(=O)O`: the survivor count runs as follows: under setting [7], 6 of 6; under setting [5], 0 of 6.
Turning to `CCCNC1(N(C)C)N=C(N(C)C)N=C(N(C)C)O1` (stereo not drawn), the survivor count under setting [6] is 0 of 6.
With `CCCCNCCC(O)c1cc2ccc(C(F)(F)F)cc2c2cc(C(F)(F)F)ccc12` (stereo not drawn), the survivor count under setting [1] is listed as 1 of 6.
For `C=CCSc1nc2ccc(NC(C)=O)cc2s1`, the survivor count reads like this: under setting [8], 6 of 6; under setting [9], 6 of 6; under setting [10], 6 of 6.
With `CN1CCCN(C(c2ccccc2)c2ccc(Cl)cc2)CC1` (stereo not drawn), the T/C (dose: 50.0 mg/kg/injection, schedule: Q01DX009 (ip), vehicle: saline with Tween-80) is 125 % of control. In addition, where the note is “dose: 100.0 mg/kg/injection, schedule: Q01DX009 (ip), vehicle: saline with Tween-80”, the survivor count is on record as 1 of 6.
For `CSCCC([NH-])C(=O)O.CSCCC([NH-])C(=O)O.[Cu+2]` (stereo not drawn), the survivor count reads like this: (dose: 25.0 mg/kg/injection, schedule: Q01DX009 (ip), vehicle: Klucel (hydroxypropylcellulose) (HPC)) 2 of 5; under setting [8], 0 of 6; (dose: 50.0 mg/kg/injection, schedule: Q01DX009 (ip), vehicle: saline) 0 of 6; under setting [9], 0 of 6; under setting [7], 0 of 6; under setting [10], 0 of 6. Besides, the survivor count under setting [5] is recorded as 0 of 6.
Turning to `CC1(C)CCCC12CCN1CCC([N+](=O)[O-])C12` (stereo not drawn), the survivor count (dose: 184.0 mg/kg/injection, schedule: Q04DX003 (ip), vehicle: saline with Tween-80) is 0 of 5.
As to `COc1cccc2c1C(=O)c1c(O)c3c(c(O)c1C2=O)C[C@@](O)(/C(C)=N\NC(=O)CCC(N)C(=O)O)C[C@@H]3OC1CC(N)C(O)C(C)O1` (stereo partly drawn) (tested in a mixture with another compound), the T/C runs as follows: (dose: 37.5 mg/kg/injection, schedule: Q04DX003 (ip), vehicle: water) 149 % of control; (dose: 150.0 mg/kg/injection, schedule: Q04DX003 (ip), vehicle: water) 140 % of control.
